# Measurements as given in PubChem BioAssay AID2685 (National Center for Advancing Translational Sciences (NCATS), 2010).
# The list shows a part of the results. Shown are side measurements of this screen, not its main read-out; they come without a call. Most of these compounds were active or inconclusive in the main read-out, so they are no random draw. The note in brackets gives the kind of curve behind each potency; many fits are weak.
# Experiment: qHTS Assay for Lipid Storage Modulators in Drosophila S3 Cells;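 as to cell number change: cells counted by Cell Tracker Red CMTPX staining in the red channel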
# Details: BODIPY lipid droplet fluorescence, 18-24 h; for cell number change: measured here: cell count max response, cells fed with added oleic acid
# In short: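 Drosophila S3 cells got compounds at several concentrations plus oleic acid (400 uM solution). Laser-scanning cytometry with 488 nm excitation read lipid droplets at 500-530 nm and cells at 575-640 nm. Percent activity was relative to 20 uM Triacsin C.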
# [1] = measured here: cell number channel AC50, cells fed with added oleic acid
# [2] = measured here: lipid fluorescence (Fed channel) AC50, cells fed with added oleic acid
Structure (SMILES),cell number change,AC50 [1],AC50 [2]
Cc1ccccc1CNC(=O)C1CCCN(c2nnc(C)c3c(C)n(-c4ccccc4)nc23)C1 (configuration not stated),8.87%,–,–
CCn1cc(C(=O)NCc2ccc3c(c2)OCO3)c(=O)c2cc(S(=O)(=O)N(C)C)ccc21,-31.9%,"23.1 µM [falling, single point]","16.4 µM [falling, partial curve]"
CCCN(C(=O)COC(=O)c1[nH]c(C)c(C(=O)OC)c1C)c1c(N)n(Cc2ccccc2)c(=O)[nH]c1=O,38.6%,"5.17 µM [rising, partial curve]",–
O=c1c2ccccc2nc2n1CCCN2,–,–,"0.116 µM [falling, full curve, poor fit]"
C=C(Br)Cn1c(CC(C)C)nc2ccccc21,3.67%,–,"3.66 µM [rising, partial curve]"
OCCCN=c1cc(-c2ccccc2)oc2ccc(Cl)cc12,-35.8%,"29.1 µM [falling, single point]",–
CCN1CCN(Cc2c(C(=O)N/N=C(\C)c3ccc(Cl)cc3)nnn2-c2nonc2N)CC1,0.855%,–,"7.31 µM [falling, single point]"
O=C(c1ccccc1F)N(Cc1ccccc1)Cc1ccccc1,18.9%,–,"6.51 µM [rising, single point]"
N#Cc1c(NCc2ccccc2)ccnc1NCc1cccnc1,-18.7%,–,"29.1 µM [falling, single point]"
Cc1csc(SCC(=O)NCCc2ccc(Cl)cc2)n1,50.1%,"6.51 µM [falling, single point]","3.66 µM [falling, single point]"
CC(=O)c1ccc(OCC(=O)N2CCCC(Nc3ccc(C)c(C)c3)C2)cc1 (configuration not stated),10.3%,"0.0651 µM [rising, full curve, poor fit]",–
Cc1ccc(N(C(=O)C2CCCC2)C2C=CS(=O)(=O)C2)cc1 (configuration not stated),-55.8%,"0.116 µM [falling, single point]","0.731 µM [falling, single point]"
CC1CC(C)CN(C(=O)COC(=O)c2cccc(S(=O)(=O)N(C)c3ccccc3)c2)C1 (configuration not stated),10.5%,–,–
COC(=O)c1ccc(C)c(NC(=O)Cc2coc3cc(OC)ccc23)c1,-18.3%,–,–
Cc1ccc(N2C(=O)CC2(C#N)c2ccc(OCc3ccccc3)cc2)cc1 (configuration not stated),–,–,"6.51 µM [falling, single point]"
CC1CNc2c(cccc2S(=O)(=O)N[C@@H](CCCN=C(N)N)C(=O)N2CC[C@@H](C)C[C@@H]2C(=O)O)C1 (some centres not stated),–,–,"0.00411 µM [rising, full curve, poor fit]"
COc1ccccc1CCNCc1ccc(OC)c(OCc2ccccc2)c1,-55.9%,"29.1 µM [falling, single point]","29.1 µM [falling, single point]"
CS(=O)(=O)CCC(C(=O)OCc1ccc(Cl)cc1)N1C(=O)c2ccccc2C1=O (configuration not stated),6.25%,–,"0.058 µM [rising, full curve, poor fit]"
COc1ccc(NC(=O)c2cccc(S(=O)(=O)N3CCN(c4ccccc4)CC3)c2)c(OC)c1,-14.1%,"0.00517 µM [falling, full curve, poor fit]","0.00517 µM [falling, full curve, poor fit]"
Cc1c(C(=O)N2CCN(C/C=C/c3ccccc3)CC2)oc2c(F)cccc12,-0.205%,–,"3.66 µM [falling, single point]"

# Pulled by structure from above, three records:
Structure (SMILES),cell number change,AC50 [1],AC50 [2]
Cc1ccccc1CNC(=O)C1CCCN(c2nnc(C)c3c(C)n(-c4ccccc4)nc23)C1 (configuration not stated),8.87%,–,–
Cc1ccc(N(C(=O)C2CCCC2)C2C=CS(=O)(=O)C2)cc1 (configuration not stated),-55.8%,"0.116 µM [falling, single point]","0.731 µM [falling, single point]"
Cc1ccc(N2C(=O)CC2(C#N)c2ccc(OCc3ccccc3)cc2)cc1 (configuration not stated),–,–,"6.51 µM [falling, single point]"

# Next part.

Structure (SMILES),cell number change,AC50 [1],AC50 [2]
Cc1occc1-c1nnc(SCC(=O)NC2CCCC2)n1-c1ccccc1,17.6%,–,"6.51 µM [rising, single point]"
CCN(c1ccccc1)S(=O)(=O)c1cccc(C(=O)N(C)CCOc2ccccc2)c1,–,"6.51 µM [rising, single point]",–
O=C(COc1ccc(Cl)cc1)NC1CC1,8.67%,–,–
O=C(Nc1ccc(Br)cn1)c1ccc(Cl)s1,17.8%,–,–
CC(=O)Nc1ccc(S(=O)(=O)NCC(=O)OCC(=O)NC(=O)C2CCCCC2)cc1,-21.7%,–,"0.0082 µM [falling, full curve, poor fit]"
O=c1c2c(-c3ccco3)csc2nc(SCc2cn3cccnc3n2)n1-c1ccccc1,-3.32%,–,–
Cc1ccc(NC(=O)CSc2nc(N)c3c4c(sc3n2)CSC(C)(C)C4)cc1,-68.9%,"16.4 µM [falling, partial curve]","3.66 µM [falling, full curve]"
Nc1nc(SCc2c(F)cccc2Cl)[nH]c(=O)c1-c1ccccc1,2.38%,–,–
Cc1ccc2c(c1)C(c1ccc(O)cc1)(c1ccc(O)cc1)C(=O)N2C,-17.5%,–,–
COc1ccc2c(c1)CC(C1(O)C(=O)N(C)c3ccccc31)C2=O (configuration not stated),7.18%,–,"18.4 µM [falling, partial curve]"
CCOC(=O)[C@@H]1[C@H]2COc3cc(OC)ccc3[C@@H]2N2C(=O)N(c3cccc(Cl)c3)C(=O)[C@]12C,16.5%,–,–
O=C(CCc1ccccc1)Nc1ccc(S(=O)(=O)Nc2nccs2)cc1,12.2%,–,"29.1 µM [falling, single point]"
O=C(COc1ccc(S(=O)(=O)N2CCOCC2)cc1)NCC1CCCO1 (configuration not stated),-6.91%,–,"0.731 µM [falling, partial curve, poor fit]"
O=C(NCCc1ccccc1)c1cccs1,10.8%,–,–
COc1ccccc1C(=O)NC(=O)COC(=O)CCOc1cc(C)ccc1C,2.21%,–,"29.1 µM [rising, single point]"
Cc1cc(C(F)(F)F)nn1CC(=O)NNC(=S)NCC(C)C,2.24%,"6.51 µM [falling, single point]",–
CCOC(=O)C1=C(C)NC(=O)NC1c1c(OC)ccc2ccccc12 (configuration not stated),18.9%,–,–
Cc1ccc(CN(c2ccc(C(=O)Nc3cccnc3)cc2)S(C)(=O)=O)cc1,50.9%,"25.9 µM [rising, partial curve, poor fit]","4.61 µM [rising, single point]"
O=C(Nc1cccc(S(=O)(=O)C(F)F)c1)c1ccc(S(=O)(=O)N2CCCCC2)cc1,-29.2%,"0.0651 µM [falling, full curve, poor fit]",–
COc1ccc(-c2ccc(-c3nc4ccc(C)cn4c3NC3CCCCC3)cc2OC)cc1,-66.6%,"16.4 µM [falling, single point]","3.26 µM [falling, single point]"

Structure (SMILES),cell number change,AC50 [1],AC50 [2]
CCCN(C(=O)CSc1nnc2ccccn12)C1CCS(=O)(=O)C1 (configuration not stated),-29.8%,–,"20.6 µM [falling, single point]"
CCCCn1c(N)c(N(CC)C(=O)c2ccc(Cl)c(Cl)c2)c(=O)[nH]c1=O,13.4%,–,–
Cc1nc2nc3c(c(=O)n2[nH]1)CCC3,-55%,"0.103 µM [falling, full curve, poor fit]","29.1 µM [falling, single point]"
CC(=O)Nc1nn(C)c2nc3cc(C)ccc3cc12,9.38%,–,"2.91 µM [rising, full curve, poor fit]"
CC(C)(C)OC(=O)C1C(=O)CC(C)(O)C(C(=O)OC(C)(C)C)C1c1ccco1 (configuration not stated),-29.7%,–,"16.4 µM [falling, partial curve]"
CCN(c1ccc(NC(=O)CN2C(=O)NC3(CCOc4ccccc43)C2=O)cc1)C(C)C (configuration not stated),7.4%,"0.651 µM [falling, single point]","6.51 µM [falling, single point]"
CC(C)(C)NC(=O)CCN(/N=C/c1ccc([N+](=O)[O-])o1)C1=NS(=O)(=O)c2ccccc21,-8.07%,–,"9.2 µM [falling, partial curve]"
CC(=O)N1CCN(c2ccccc2NC(=O)c2ccc(Br)o2)CC1,17.3%,–,"0.58 µM [rising, single point]"
CC(=O)ON1C(C)(C)CC(OC(=O)c2ccccc2)CC1(C)C,-14.4%,"0.00411 µM [falling, full curve, poor fit]",–
CCc1cccc(NC(=O)CCc2c(C)nn(-c3ccc(N4CCCCC4)nn3)c2C)c1,-12.2%,–,–
Cc1ccc(NC(=O)CSc2nc3c(cc2C#N)C(=O)CCC3)cc1S(=O)(=O)N(C)C,-14.8%,–,–
NS(=O)(=O)c1ccc(NC(=O)CN2CCc3ccccc3C2)cc1,33.2%,"29.1 µM [rising, partial curve, poor fit]",–
Cc1ccc(C)c(NC(=O)CN(C)C(=O)c2nn(C)c(=O)c3ccccc23)c1,–,–,"0.146 µM [rising, partial curve, poor fit]"
Cc1ccc(N2C(=O)c3ccccc3NC2(C(=O)O)c2ccccc2)cc1Cl (configuration not stated),–,–,"29.1 µM [rising, single point]"
COc1cccc(NC(=O)CCNS(=O)(=O)c2cccc3nonc23)c1,15.2%,–,"6.51 µM [falling, single point]"
CN(CP(=O)(O)CN(C)S(C)(=O)=O)S(C)(=O)=O,30.8%,–,"20.6 µM [rising, single point]"
CC(=O)c1cccc(NC(=O)C(C)OC(=O)Cc2c[nH]c3ccccc23)c1 (configuration not stated),47.9%,"9.2 µM [rising, partial curve]","10.3 µM [rising, partial curve]"
Cc1ccc(S(=O)(=O)N2CCN(c3cnn(-c4ccccc4)c(=O)c3Cl)CC2)cc1,-9.24%,–,"0.651 µM [falling, single point]"
COC(=O)c1ccccc1NC(=O)C(=O)NCc1ccncc1,6.37%,–,"4.61 µM [rising, full curve, poor fit]"
C=CCc1ccccc1OCC(O)CNC(=O)c1ccccc1C(=O)O (configuration not stated),31.1%,"2.06 µM [rising, full curve, poor fit]","20.6 µM [rising, single point]"
